Twelve compounds from the M2OR odorant receptor database can be followed below.

Chains of the proteins cited; added tags and fusions are not shown. Chains listed by the source or under a name are the forms on record and can include a tag or linker.
O10G4, as listed by the source: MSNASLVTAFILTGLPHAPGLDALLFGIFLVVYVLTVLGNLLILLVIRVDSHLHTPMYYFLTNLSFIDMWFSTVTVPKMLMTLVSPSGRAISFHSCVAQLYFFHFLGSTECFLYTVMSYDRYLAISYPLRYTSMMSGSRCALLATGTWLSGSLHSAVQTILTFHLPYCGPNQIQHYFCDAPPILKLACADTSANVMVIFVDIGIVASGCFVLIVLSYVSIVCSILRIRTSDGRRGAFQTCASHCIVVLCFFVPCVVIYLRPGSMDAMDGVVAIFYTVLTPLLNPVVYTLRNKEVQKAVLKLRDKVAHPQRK
O10G7, as listed by the source: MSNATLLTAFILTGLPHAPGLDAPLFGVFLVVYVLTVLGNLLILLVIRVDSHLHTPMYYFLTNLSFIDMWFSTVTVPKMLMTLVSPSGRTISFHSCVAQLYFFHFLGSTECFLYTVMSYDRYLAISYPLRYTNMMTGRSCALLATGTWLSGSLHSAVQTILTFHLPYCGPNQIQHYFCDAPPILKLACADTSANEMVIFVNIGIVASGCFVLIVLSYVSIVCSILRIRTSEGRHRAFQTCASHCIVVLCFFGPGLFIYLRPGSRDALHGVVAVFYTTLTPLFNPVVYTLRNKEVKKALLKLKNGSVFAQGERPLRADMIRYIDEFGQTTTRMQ

Holding throughout (settings): stereoisomer not certain
Test [1] has as its system T1, O10G3.
T1 sequence (whole entry): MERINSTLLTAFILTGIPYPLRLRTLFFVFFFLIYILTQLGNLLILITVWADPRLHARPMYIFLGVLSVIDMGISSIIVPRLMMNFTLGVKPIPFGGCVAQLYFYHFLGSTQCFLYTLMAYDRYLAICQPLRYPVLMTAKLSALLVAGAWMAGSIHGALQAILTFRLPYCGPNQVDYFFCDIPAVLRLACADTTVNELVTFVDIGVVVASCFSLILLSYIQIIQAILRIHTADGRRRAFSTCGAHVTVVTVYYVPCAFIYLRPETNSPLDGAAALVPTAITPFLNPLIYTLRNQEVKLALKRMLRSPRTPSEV
The method, boiled down: (§1)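 Transient luciferase assays in mammalian cell lines were common, though methods varied by source. The values come from published papers and their supplementary material, with extra details from the original authors when needed. Responsive refers to a measured signal the original authors judged statistically different from baseline, and non-responsive (inactive) to the remainder.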

The test system of test [2] is T2, O10G4.
T2 sequence (whole entry): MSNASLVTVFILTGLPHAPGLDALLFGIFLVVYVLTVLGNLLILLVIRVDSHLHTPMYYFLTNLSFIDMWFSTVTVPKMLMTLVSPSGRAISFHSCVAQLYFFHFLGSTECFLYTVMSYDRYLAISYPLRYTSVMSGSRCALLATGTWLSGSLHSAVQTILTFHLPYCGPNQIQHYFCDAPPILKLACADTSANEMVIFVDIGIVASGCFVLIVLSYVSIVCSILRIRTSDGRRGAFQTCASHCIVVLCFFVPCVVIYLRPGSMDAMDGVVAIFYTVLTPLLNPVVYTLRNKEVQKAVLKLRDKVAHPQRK
The method, boiled down: as §1

Test [3] relates to T3, O10G9.
T3 sequence (whole entry): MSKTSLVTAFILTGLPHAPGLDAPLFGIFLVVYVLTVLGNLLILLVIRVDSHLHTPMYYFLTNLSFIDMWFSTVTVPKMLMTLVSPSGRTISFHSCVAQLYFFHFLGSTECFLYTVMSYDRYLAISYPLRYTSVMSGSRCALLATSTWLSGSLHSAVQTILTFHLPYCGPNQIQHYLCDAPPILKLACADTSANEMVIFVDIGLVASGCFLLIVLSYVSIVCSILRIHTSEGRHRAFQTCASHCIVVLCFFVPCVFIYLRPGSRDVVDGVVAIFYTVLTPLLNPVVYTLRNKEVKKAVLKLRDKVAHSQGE
The method, boiled down: as §1

Test [4] has as its system T4, O10H2.
T4 sequence (whole entry): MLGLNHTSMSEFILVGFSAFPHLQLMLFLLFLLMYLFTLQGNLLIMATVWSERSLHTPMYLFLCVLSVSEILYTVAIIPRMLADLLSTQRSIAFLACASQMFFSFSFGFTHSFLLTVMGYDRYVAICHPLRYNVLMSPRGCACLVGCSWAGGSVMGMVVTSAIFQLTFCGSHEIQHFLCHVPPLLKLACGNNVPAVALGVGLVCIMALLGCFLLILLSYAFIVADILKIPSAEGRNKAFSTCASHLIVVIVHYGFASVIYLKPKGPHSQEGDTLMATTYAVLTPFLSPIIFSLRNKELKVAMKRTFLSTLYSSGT
The method, boiled down: as §1

Test [5] relates to T5, O10H5.
T5 sequence (whole entry): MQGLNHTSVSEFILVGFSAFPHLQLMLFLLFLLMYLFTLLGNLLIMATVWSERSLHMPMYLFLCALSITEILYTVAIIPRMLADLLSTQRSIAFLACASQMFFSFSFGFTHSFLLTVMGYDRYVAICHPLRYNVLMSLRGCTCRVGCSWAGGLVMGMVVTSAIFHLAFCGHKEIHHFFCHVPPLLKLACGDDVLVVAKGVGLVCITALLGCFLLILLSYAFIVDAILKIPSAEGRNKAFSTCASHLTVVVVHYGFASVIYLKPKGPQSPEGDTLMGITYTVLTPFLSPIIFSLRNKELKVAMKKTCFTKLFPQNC
The method, boiled down:
as §1

In test [6] the test system is T6, O10J1.
T6 sequence (whole entry): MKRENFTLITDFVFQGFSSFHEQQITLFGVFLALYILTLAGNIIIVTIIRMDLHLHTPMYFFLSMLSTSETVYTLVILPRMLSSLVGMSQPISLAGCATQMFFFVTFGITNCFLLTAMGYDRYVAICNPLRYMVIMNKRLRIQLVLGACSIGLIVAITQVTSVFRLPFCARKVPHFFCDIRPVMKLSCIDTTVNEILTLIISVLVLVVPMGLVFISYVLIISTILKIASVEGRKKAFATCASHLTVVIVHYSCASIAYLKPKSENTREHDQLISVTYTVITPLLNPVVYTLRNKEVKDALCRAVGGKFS
The method, boiled down: as §1

Test [7] has as its system O10G7. The method, boiled down: as §1
Test [8] concerns O10G4. The method, boiled down:
as §1
This is another data set of the same source.

Test [9] deals with O10G4. The method, boiled down:
as §1
The source holds these as a separate data set.

The test system of test [10] is O10G4. The method, boiled down: as §1
The source holds these as a separate data set.

The structures appear in SMILES notation. Only a part is listed here, and it is no random draw. Calls are pooled over several reports, among them a noisy single-well screen. This is one part of the list.
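Also: active if original authors judged signal statistically different from baseline.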

As for `CC12CCC(C1)C(C)(C)C2=O` (stereo unspecified), the “odorant receptor agonist call” value in test [1], in [2], in test [3], in test [4], in test [5] and in test [6] was “inactive” in each case.
Regarding `CC(=O)OCC=C(C)CCC=C(C)C`, the “odorant receptor agonist call” value in test [1], in [3], in test [4] and in [5] was “inactive” in each case. The “odorant receptor agonist call” value in test [2] and in test [6] was “active” throughout.
Turning to `CCCCCCCC=O`, the “odorant receptor agonist call” value in test [1], in test [2], in [3], in [4], in test [5] and in test [6] was “inactive” each time.
As to `CCCCCOC(C)=O`, the “odorant receptor agonist call” value in test [1], in test [2], in test [3], in test [4], in test [5] and in test [6] was “inactive” throughout. The “odorant receptor agonist call” value in [7] was “active”.
In the case of `O=C1CCCCCCCCCCCC(=O)OCCO1`, the “odorant receptor agonist call” value in [1], in [3], in test [4] and in test [5] was “inactive” throughout. Besides, the “odorant receptor agonist call” value in test [2] and in test [6] was “active” each time.
For the compound `O=CCc1ccccc1`, the “odorant receptor agonist call” value in [1], in test [2], in [3], in [4], in [5] and in test [6] was “inactive” each time.
`CCCCO`: the “odorant receptor agonist call” value in [1], in test [2], in test [3], in [4], in [5] and in [6] was “inactive” in each case.
In the case of `COc1cc(C=O)ccc1O`, the “odorant receptor agonist call” value in test [1], in [9], in [10] and in test [2] was “active” in each case. Further, the “odorant receptor agonist call” value in test [8], in test [3], in test [4], in test [5] and in test [6] was “inactive” throughout.
Consider `CC(C)CC(=O)O`, for which the “odorant receptor agonist call” value in [1], in test [2], in test [3], in [4], in test [5] and in [6] was “inactive” in each case.
`CC(C)CCC(=O)O`: the “odorant receptor agonist call” value in test [1], in test [3], in test [4], in [5] and in [6] was “inactive” throughout. The “odorant receptor agonist call” value in test [2] was “active”.
Turning to `CC(=O)OC1CC2CCC1(C)C2(C)C` (stereo unspecified), the “odorant receptor agonist call” value in test [1], in test [2], in [3], in test [4], in test [5] and in [6] was “inactive” in each case.
Turning to `CCCCCCOC(=O)CCC`, the “odorant receptor agonist call” value in [1], in test [2], in [3], in test [4], in test [5] and in test [6] was “inactive” each time.
